Experimental data reported in US11617733B2, “Bicyclic compound and use thereof for medical purposes” (ONO PHARMACEUTICAL CO., LTD., priority 2009, dated 2023).
Some of these results come from one statement about several compounds together.

The molecules below were run on male rabbit (NewZealandWhite) (assay: Ocular stimulating property (Draize score) in rabbit after ocular instillation). Details: ocular instillation 30 μL, 0.1% (w/v), 0-8 hours.
Format: in vivo

Row | SMILES | Classification of ocular stimulating property from maximum of the Draize score
1 | CC(C)OC(=O)CCC[C@H]1CC[C@@H]2[C@@H](/C=C/[C@@H](O)COc3cc(F)ccc3F)[C@H](O)C[C@@H]2OC1 [Example 16 (25), 2-Propanyl 4-{(3S, 5aR, 6R, 7R, 8aS)-6-[(1E, 3R)-4-(2,5-difluorophenoxy)-3-hydroxy-1-buten-1-yl]-7-hydroxyoctahydro-2H-cyclopenta[b]oxepin-3-yl}butanoate] | non-stimulating substance (A Draize score of 0 or more and 5 or less was a non-stimulating substance)
2 | CC(C)OC(=O)CCC[C@H]1CC[C@@H]2[C@@H](/C=C/[C@@H](O)COc3cccc(Cl)c3)[C@H](O)C[C@@H]2OC1 [Example 16 (3), 2-Propanyl 4-{(3S, 5aR, 6R, 7R, 8aS)-6-[(1E, 3R)-4-(3-chlorophenoxy)-3-hydroxy-1-buten-1-yl]-7-hydroxyoctahydro-2H-cyclopenta[b]oxepin-3-yl}butanoate] | non-stimulating substance (A Draize score of 0 or more and 5 or less was a non-stimulating substance)
3 | CCOC(=O)CCC[C@H]1CC[C@@H]2[C@@H](/C=C/[C@@H](O)COc3ccccc3)[C@H](O)C[C@@H]2OC1 [Example 16 (35), Ethyl 4-{(3S, 5aR, 6R, 7R, 8aS)-7-hydroxy-6-[(1E, 3R)-3-hydroxy-4-phenoxy-1-buten-1-yl]octahydro-2H-cyclopenta[b]oxepin-3-yl}butanoate] | non-stimulating substance (A Draize score of 0 or more and 5 or less was a non-stimulating substance)
